Measurements from patent publication US20080241162A1.
Results are given in words; binding and its absence hold for the method and conditions named. Some binding calls cover weakened binding; strength is not graded here.

Chains of the proteins cited; added tags and fusions are not shown. Residues count along the entry.
UniProt P27958, residues 388-664: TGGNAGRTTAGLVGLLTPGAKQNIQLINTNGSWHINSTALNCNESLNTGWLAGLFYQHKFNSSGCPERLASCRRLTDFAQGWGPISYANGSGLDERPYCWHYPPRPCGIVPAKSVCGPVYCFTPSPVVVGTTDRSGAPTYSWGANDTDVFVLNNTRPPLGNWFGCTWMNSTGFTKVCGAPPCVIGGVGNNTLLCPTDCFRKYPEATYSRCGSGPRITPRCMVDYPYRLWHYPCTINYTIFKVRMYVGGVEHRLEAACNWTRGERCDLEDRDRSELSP

Target: purified recombinant HCV/E2 of 1a genotype (strain H) expressed in CHO cells (Hepatitis C virus genotype 1a (strain H)) (UniProt P27958)
Test: Fab inhibition ELISA (FIT) on HCV/E2, probe e8-FLAG

B1: e8-IgG1 (full-size human monoclonal antibody) (antibody, V domains shown)
VH: LLEQSGAEVKMPGATVKVSCQSSRYTFTSYGIGWVRQAPGQGLEWMGWISGYTHETKYAQSFQGRVTMTAETSTGTAYMELRSLRSDDTATYYCARDGGGRVVVPPTHLRAFDVWGQGT
VL: MAELTQSPGTLSLSPGERATLSCRASHRVNNNFLAWYQQKPGQAPRLLISGASTRATGIPDRFSGSGSGTDFTLTISRLEPDDFAVYYCQQYGDSPLYSFGQGT
With B1 the binding was “binds”.
